PubChem BioAssay AID1259308, NCATS, 2017

Screen: 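Candidate targets for better recombinant protein yield in mammalian cells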 (primary screen)
Cell system: human HEK293 embryonic kidney cells stably expressing firefly luciferase (HEK-CMV-Luc2-Hygro)
Reagent: single siRNA against human genes, 0.8 pmol siRNA per well
Duration: 72 h
Read-out: 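Reporter luminescence and viable-cell signal on separate replicate plates, given as percent of non-targeting control and median/MAD z-scores, plus per-cell luciferase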
Scale: total luciferase, z-score and total luciferase, % of control: higher = more reporter protein produced; luciferase per cell, z-score: higher = more reporter output per viable cell; viable cells, % of control: higher = more viable cells
Call rule: 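Active when the median/MAD z-score for overall luciferase is greater than 3; a gene was taken forward for validation with new siRNAs if at least two of its three siRNAs passed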
Meaning of the calls: active = raised luciferase; inactive = no rise
Shown is one part, drawn at random, of about 59,000 reagents. Over the whole deposit, about 1,510 (2.6%) were called active. 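Calls use total luciferase alone and ignore viability, so some active siRNAs may act by altering cell number.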 Unmarked entries are inactive. The numbers tell different reagents against one gene apart. Reagent sequences are not shown.

The first 7 entries, to show the layout:
| Gene | reagent | total luciferase, z-score | total luciferase, % of control | luciferase per cell, z-score | viable cells, % of control |
| --- | --- | --- | --- | --- | --- |
| ANKRD36C (GeneID 400986) | 1 | -1.53 | 51.5 | -0.769 | 70.5 |
| ANKRD36C (GeneID 400986) | 2 | -0.987 | 62.2 | -1.01 | 90.6 |
| ANKRD36C (GeneID 400986) | 3 | 1.02 | 102 | 0.27 | 106 |
| KRT39 (GeneID 390792) | 1 | -0.691 | 68.1 | -0.781 | 93.5 |
| KRT39 (GeneID 390792) | 2 | 0.526 | 92.3 | 0.1 | 100 |
| KRT39 (GeneID 390792) | 3 | -0.498 | 72 | -0.611 | 94.5 |
| ATG2B (GeneID 55102) | 1 | -0.714 | 67.7 | -0.306 | 82 |

Results, from the start:
| Gene | reagent | total luciferase, z-score | total luciferase, % of control | luciferase per cell, z-score | viable cells, % of control |
| --- | --- | --- | --- | --- | --- |
| ANKRD36C (GeneID 400986) | 1 | -1.53 | 51.5 | -0.769 | 70.5 |
| ANKRD36C (GeneID 400986) | 2 | -0.987 | 62.2 | -1.01 | 90.6 |
| ANKRD36C (GeneID 400986) | 3 | 1.02 | 102 | 0.27 | 106 |
| KRT39 (GeneID 390792) | 1 | -0.691 | 68.1 | -0.781 | 93.5 |
| KRT39 (GeneID 390792) | 2 | 0.526 | 92.3 | 0.1 | 100 |
| KRT39 (GeneID 390792) | 3 | -0.498 | 72 | -0.611 | 94.5 |
| ATG2B (GeneID 55102) | 1 | -0.714 | 67.7 | -0.306 | 82 |
| ATG2B (GeneID 55102) | 2 | -2.92 | 23.7 | -3.93 | 74.7 |
| ATG2B (GeneID 55102) | 3 | 0.781 | 97.4 | 0.757 | 89.2 |
| GMPS (GeneID 8833) | 1 | -0.707 | 67.8 | -1.14 | 102 |
| GMPS (GeneID 8833) | 2 | 3.27 (active) | 147 | 2.07 | 95.1 |
| GMPS (GeneID 8833) | 3 | -0.449 | 73 | 0.211 | 77.1 |
| RAB9B (GeneID 51209) | 1 | -0.184 | 78.2 | -0.517 | 100 |
| RAB9B (GeneID 51209) | 2 | 0.273 | 87.3 | 0.0361 | 96.7 |
| RAB9B (GeneID 51209) | 3 | 1.3 | 108 | 1.14 | 89.1 |
| LINC01567 (GeneID 400511) | 1 | 1.08 | 103 | 1.18 | 84.7 |
| LINC01567 (GeneID 400511) | 2 | 0.153 | 84.9 | 0.0747 | 93.1 |
| LINC01567 (GeneID 400511) | 3 | 1.08 | 103 | 1.86 | 70.8 |
| ZHX1 (GeneID 11244) | 1 | -0.86 | 64.8 | 0.324 | 66.5 |
| ZHX1 (GeneID 11244) | 2 | -0.243 | 77 | -0.14 | 89.3 |
| ZHX1 (GeneID 11244) | 3 | -1.08 | 60.5 | -1.43 | 98.6 |
| SMG1 (GeneID 23049) | 1 | 0.198 | 85.8 | 0.573 | 82.5 |
| SMG1 (GeneID 23049) | 2 | 1.32 | 108 | 0.257 | 113 |
| SMG1 (GeneID 23049) | 3 | 1.67 | 115 | 0.81 | 104 |
| TFF2 (GeneID 7032) | 1 | 0.208 | 86 | 0.162 | 92.1 |
| TFF2 (GeneID 7032) | 2 | 1.23 | 106 | 1.24 | 85.6 |
| TFF2 (GeneID 7032) | 3 | 1.75 | 117 | 1.6 | 85.5 |
| ISYNA1 (GeneID 51477) | 1 | -0.409 | 73.7 | -0.143 | 85.6 |
| ISYNA1 (GeneID 51477) | 2 | 0.436 | 90.6 | 0.553 | 87.5 |
| ISYNA1 (GeneID 51477) | 3 | -0.754 | 66.9 | 0.107 | 72.7 |
| SCO1 (GeneID 6341) | 1 | 0.231 | 86.5 | -0.778 | 119 |
| SCO1 (GeneID 6341) | 2 | 0.999 | 102 | 0.771 | 92.8 |
| SCO1 (GeneID 6341) | 3 | 0.0985 | 83.8 | -0.46 | 106 |
| POMP (GeneID 51371) | 1 | 0.571 | 93.2 | 1.93 | 62.6 |
| POMP (GeneID 51371) | 2 | -0.149 | 78.9 | 0.741 | 72.6 |
| POMP (GeneID 51371) | 3 | 0.821 | 98.2 | 1.98 | 65.2 |
| ZC2HC1A (GeneID 51101) | 1 | 0.28 | 87.4 | 0.39 | 88.2 |
| ZC2HC1A (GeneID 51101) | 2 | -0.48 | 72.3 | -0.666 | 96.3 |
| ZC2HC1A (GeneID 51101) | 3 | -0.279 | 76.3 | -0.637 | 101 |
| ADRA1B (GeneID 147) | 1 | 0.805 | 97.9 | 0.721 | 90.5 |
| ADRA1B (GeneID 147) | 2 | -0.743 | 67.1 | 0.0806 | 73.4 |
| ADRA1B (GeneID 147) | 3 | -0.0258 | 81.4 | 0.628 | 77.1 |
| SAMD11 (GeneID 148398) | 1 | 1.32 | 108 | -0.00714 | 121 |
| SAMD11 (GeneID 148398) | 2 | 1.2 | 106 | 0.802 | 95.6 |
| SAMD11 (GeneID 148398) | 3 | 4.91 (active) | 179 | 3.51 | 79.6 |
| EFCAB13 (GeneID 124989) | 1 | 3.91 (active) | 160 | 4.23 | 58.5 |
| EFCAB13 (GeneID 124989) | 2 | -0.762 | 66.7 | -0.826 | 92.7 |
| EFCAB13 (GeneID 124989) | 3 | -0.423 | 73.5 | -0.712 | 99 |
| RBM12B (GeneID 389677) | 1 | -0.577 | 70.4 | -0.613 | 92.5 |
| RBM12B (GeneID 389677) | 2 | -0.259 | 76.7 | -0.609 | 101 |
| RBM12B (GeneID 389677) | 3 | 0.67 | 95.2 | 0.242 | 99.8 |
| FOLH1B (GeneID 219595) | 1 | -0.612 | 69.7 | 0.0993 | 75.9 |
| FOLH1B (GeneID 219595) | 2 | -1.07 | 60.6 | -1.08 | 90 |
| FOLH1B (GeneID 219595) | 3 | -0.709 | 67.8 | -1.11 | 102 |
| MARCO (GeneID 8685) | 1 | 0.713 | 96.1 | 0.349 | 97.9 |
| MARCO (GeneID 8685) | 2 | 1.44 | 111 | 0.826 | 99.4 |
| MARCO (GeneID 8685) | 3 | -1.11 | 59.9 | -0.564 | 77.6 |
